{"source": "paper PMC8464784", "molecules": {"B1": {"name": "AD-HD2C (protein, UniProt Q9LZR5 1-294)", "chain": "MEFWGVEVKNGKPLHLDPGLDRLVHISQVALGESKNNVTEPIQLYVTVGSDKLLIGTLSHEKFPQLSTEIVLERNFALSHTWKNGSVFFSGYKVDASDPEPEDLIDDQLEAAGFKAAPKSAAKQVNFQLPNEDVKAKQDDDADGSEEDSSDDDDSENSGDEEEEKVTAESDSEEDDSSDDEEDDSSEEETPKKPEEPKKRSAEPNSSKNPASNKKAKFVTPQKTDSKKPHVHVATPHPSKQAGKNSGGGSTGETSKQQQTPKSAGAFGCKSCTRTFTSEMGLQSHTKAKHSAAA"}}, "key": {"[1]": {"biological_target": "T1, FLAG-HD2C (Arabidopsis thaliana) (UniProt Q9LZR5)", "T1 sequence": "B1 chain", "assay": "co-IP; FLAG-HD2C and MYC-HDA6 co-expressed with YFP-P6 or YFP in the same N. benthamiana leaf; anti-FLAG M2 affinity gel; blots with anti-FLAG, anti-MYC, anti-GFP"}, "[2]": {"biological_target": "T1, FLAG-HD2C (Arabidopsis thaliana)", "assay": "co-IP; FLAG-HD2C or FLAG-GFP co-expressed with MYC-P6 in N. benthamiana; anti-FLAG M2 affinity gel, 2 h at 4 C; 50 mM Tris-HCl pH 7.5, 150 mM NaCl, 0.5% Triton X-100"}, "[3]": {"biological_target": "T2, GST-HD2C (Arabidopsis thaliana) (UniProt Q9LZR5)", "T2 sequence": "B1 chain", "assay": "pull-down; purified MBP-P6 (2 ug) mixed with GST-HD2C (2 ug) or GST in PBS, 1% Triton X-100, 2 h at 4 C; GST beads; western blot with anti-MBP; both purified"}, "[4]": {"biological_target": "T3, HD2C-cEYFP (Arabidopsis thaliana) (UniProt Q9LZR5)", "T3 sequence": "B1 chain", "assay": "split reporter; BiFC with split EYFP, transient co-expression in N. benthamiana leaves, confocal microscopy after 2 days"}, "[5]": {"biological_target": "BD-P6 (Cauliflower mosaic virus (strain CM1841))", "assay": "two-hybrid; P6 in pGBKT7 and HD2C in pGADT7, AH109 yeast; growth on SD/-Leu/-Trp/-His with 5 mM 3-Amino-1,2,4-triazole"}}, "note": "Results are given in words; binding and its absence hold for the method and conditions named. A result given as binding can be weak or reduced; the word gives no strength. For some assays here: Where a sequence is shown, tags or fusion partners need not be part of it. For some assays here: In cells and extracts the contact can be indirect."}
{"molecule": "YFP-P6 (Cauliflower mosaic virus (strain CM1841))", "values": [{"measurement": "binding", "setting": "[1]", "value": "binds"}]}
{"molecule": "MYC-P6 (Cauliflower mosaic virus (strain CM1841))", "values": [{"measurement": "binding", "setting": "[2]", "value": "binds"}]}
{"molecule": "MBP-P6 (Cauliflower mosaic virus (strain CM1841))", "values": [{"measurement": "binding", "setting": "[3]", "value": "binds"}]}
{"molecule": "nEYFP-P6 (Cauliflower mosaic virus (strain CM1841))", "values": [{"measurement": "binding", "setting": "[4]", "value": "binds"}]}
{"molecule": "B1", "values": [{"measurement": "binding", "setting": "[5]", "value": "binds"}]}
